# Source: patent publication US20220017478A1, “2-BENZOYLAMINOBENZAMIDE DERIVATIVES AS BCL-3 INHIBITORS” (University College Cardiff Consultants Limited, priority 2013, published 2022)
# Some entries share one result that the patent states for a list of compounds.
# Legend:
# HEK-293 cells = test: Cell Titre Blue viability assay, HEK-293; type: cell-based, human; settings: HEK-293, 10 μM, 24 hrs, vs DMSO
# Source text: In all assays, a DMSO control was always used.
# MDA-MB-231 cells = test: Cell Titre Blue viability assay, MDA-MB-231; settings: MDA-MB-231, 10 μM, 24 hrs, vs DMSO
SMILES,cell viability (HEK-293 cells),cell viability (MDA-MB-231 cells)
"Cc1ccccc1C(=O)Nc1ccccc1C(=O)NCCN1CCOCC1 [Compound 1j, 2-[(2-methylbenzoyl)amino]-N-(2-morpholin-4-ylethyl) benzamide]",above 70%,above 70%
"O=C(Nc1ccccc1C(=O)NCCN1CCOCC1)c1cc(F)cc(F)c1 [Compound 1o, 3,5-difluoro-N-(2-[(2-morpholin-4-ylethyl)carbamoyl]phenyl) benzamide]",above 90%,above 90%
"COc1cc(C(=O)Nc2ccccc2C(=O)NCCN2CCOCC2)cc(OC)c1OC [Compound 1n, 3,4,5-trimethoxy-N-(2-[(2-morpholin-4-ylethyl)carbamoyl]phenyl) benzamide]",above 90%,above 90%
"O=C(Nc1ccc(Cl)cc1C(=O)NCCN1CCOCC1)c1ccccc1F [Compound 3d, 2-[(2-fluorobenzoyl)amino]-2-chloro-N-(2-morpholin-4-ylethyl) benzamide]",above 70%,above 70%
"O=C(NCCN1CCOCC1)c1ccccc1NC(=O)c1c(F)cccc1F [Compound 1p, 2,6-difluoro-N-(2-[(2-morpholin-4-ylethyl)carbamoyl]phenyl) benzamide]",above 90%,above 90%
"O=C(Nc1ccccc1C(=O)NCCN1CCOCC1)c1ccc([N+](=O)[O-])cc1 [Compound 1i, 2-[(4-nitrobenzoyl)amino]-N-(2-morpholin-4-ylethyl) benzamide]",above 70%,
"Cc1cccc(C(=O)NCCN2CCOCC2)c1NC(=O)c1ccccc1F [Compound 3b, 2-[(2-fluorobenzoyl)amino]-3-methyl-N-(2-morpholin-4-ylethyl) benzamide]",above 70%,above 70%
"COc1cc(OC)cc(C(=O)Nc2ccccc2C(=O)NCCN2CCOCC2)c1 [Compound 1m, 3,5-dimethoxy-N-(2-[(2-morpholin-4-ylethyl)carbamoyl]phenyl) benzamide]",above 90%,above 90%
"NCCNC(=O)c1ccccc1NC(=O)c1ccccc1F [Compound 2f, N-(2-aminoethyl)-2-(2-fluorobenzamido) benzamide]",above 70%,above 70%
"COc1ccc(C(=O)Nc2ccccc2C(=O)NCCN2CCOCC2)cc1OC [Compound 1l, 3,4-dimethoxy-N-(2-[(2-morpholin-4-ylethyl)carbamoyl]phenyl) benzamide]",above 90%,above 90%
"O=C(Nc1ccccc1C(=O)NCCN1CCOCC1)c1ccc(F)cc1F [Compound 1q, 2,4-difluoro-N-(2-[(2-morpholin-4-ylethyl)carbamoyl]phenyl) benzamide]",above 90%,above 90%
